For 13 substances, binding results are on record in patent publication US20230035235A1.

The chains behind the UniProt entries cited, without tags or fusion partners. Residues count along the entry.
UniProt Q92925: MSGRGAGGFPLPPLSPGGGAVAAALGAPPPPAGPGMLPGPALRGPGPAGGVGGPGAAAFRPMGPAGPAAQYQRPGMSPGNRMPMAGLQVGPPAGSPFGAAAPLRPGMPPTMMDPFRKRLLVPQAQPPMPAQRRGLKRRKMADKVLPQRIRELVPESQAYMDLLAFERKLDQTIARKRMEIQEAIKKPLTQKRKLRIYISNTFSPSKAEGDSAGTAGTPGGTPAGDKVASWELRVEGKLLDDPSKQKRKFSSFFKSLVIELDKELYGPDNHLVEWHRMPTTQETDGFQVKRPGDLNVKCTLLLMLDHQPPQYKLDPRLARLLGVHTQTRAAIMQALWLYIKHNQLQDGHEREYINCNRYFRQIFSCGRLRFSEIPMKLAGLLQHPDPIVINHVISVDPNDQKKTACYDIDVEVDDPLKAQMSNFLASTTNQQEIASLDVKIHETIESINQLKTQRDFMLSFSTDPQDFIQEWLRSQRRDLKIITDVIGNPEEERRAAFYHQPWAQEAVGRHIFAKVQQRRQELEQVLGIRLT
UniProt Q6STE5, residues 2-483: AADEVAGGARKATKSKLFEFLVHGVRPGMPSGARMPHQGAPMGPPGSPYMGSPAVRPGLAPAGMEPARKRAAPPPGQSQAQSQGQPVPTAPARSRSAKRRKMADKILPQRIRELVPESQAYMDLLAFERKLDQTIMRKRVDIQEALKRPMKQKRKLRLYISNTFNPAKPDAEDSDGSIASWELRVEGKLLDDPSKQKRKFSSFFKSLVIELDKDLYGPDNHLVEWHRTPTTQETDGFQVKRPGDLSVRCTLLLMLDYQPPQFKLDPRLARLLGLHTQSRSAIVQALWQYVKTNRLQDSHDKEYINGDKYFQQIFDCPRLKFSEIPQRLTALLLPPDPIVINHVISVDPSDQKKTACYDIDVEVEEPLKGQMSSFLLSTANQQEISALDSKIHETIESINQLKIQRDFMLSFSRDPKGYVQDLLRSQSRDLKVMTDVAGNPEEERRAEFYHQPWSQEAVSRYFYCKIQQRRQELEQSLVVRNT
UniProt Q8TAQ2: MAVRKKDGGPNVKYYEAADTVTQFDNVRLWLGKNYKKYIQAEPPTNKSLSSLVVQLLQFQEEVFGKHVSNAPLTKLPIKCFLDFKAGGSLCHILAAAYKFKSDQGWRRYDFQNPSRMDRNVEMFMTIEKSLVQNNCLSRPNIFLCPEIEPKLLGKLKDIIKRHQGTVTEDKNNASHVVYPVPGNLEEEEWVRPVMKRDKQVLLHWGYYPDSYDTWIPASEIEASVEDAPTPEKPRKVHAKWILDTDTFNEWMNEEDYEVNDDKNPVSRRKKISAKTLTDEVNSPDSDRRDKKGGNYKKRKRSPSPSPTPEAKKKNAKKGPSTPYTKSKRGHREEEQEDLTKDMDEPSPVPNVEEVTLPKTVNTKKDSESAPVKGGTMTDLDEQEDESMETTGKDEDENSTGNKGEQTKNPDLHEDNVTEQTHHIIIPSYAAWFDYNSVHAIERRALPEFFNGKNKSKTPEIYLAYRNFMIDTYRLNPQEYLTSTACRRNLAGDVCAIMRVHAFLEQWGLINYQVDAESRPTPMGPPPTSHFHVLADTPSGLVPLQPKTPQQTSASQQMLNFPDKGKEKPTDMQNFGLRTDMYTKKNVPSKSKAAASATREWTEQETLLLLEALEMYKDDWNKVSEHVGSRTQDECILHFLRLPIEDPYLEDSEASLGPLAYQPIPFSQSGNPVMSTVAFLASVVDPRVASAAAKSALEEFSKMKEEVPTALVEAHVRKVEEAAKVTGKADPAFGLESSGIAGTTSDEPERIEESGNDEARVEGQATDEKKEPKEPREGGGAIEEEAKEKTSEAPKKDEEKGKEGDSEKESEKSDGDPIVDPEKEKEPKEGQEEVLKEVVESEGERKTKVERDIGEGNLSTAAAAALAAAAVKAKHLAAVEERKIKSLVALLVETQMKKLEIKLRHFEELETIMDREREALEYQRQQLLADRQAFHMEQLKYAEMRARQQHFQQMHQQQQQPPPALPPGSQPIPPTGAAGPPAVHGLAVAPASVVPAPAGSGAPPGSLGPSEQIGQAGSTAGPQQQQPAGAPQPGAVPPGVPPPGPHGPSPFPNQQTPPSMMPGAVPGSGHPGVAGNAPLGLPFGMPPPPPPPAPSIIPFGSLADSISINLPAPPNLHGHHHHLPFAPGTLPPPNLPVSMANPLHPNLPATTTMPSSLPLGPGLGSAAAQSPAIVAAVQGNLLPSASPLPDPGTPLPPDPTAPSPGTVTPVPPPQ
UniProt Q86U86: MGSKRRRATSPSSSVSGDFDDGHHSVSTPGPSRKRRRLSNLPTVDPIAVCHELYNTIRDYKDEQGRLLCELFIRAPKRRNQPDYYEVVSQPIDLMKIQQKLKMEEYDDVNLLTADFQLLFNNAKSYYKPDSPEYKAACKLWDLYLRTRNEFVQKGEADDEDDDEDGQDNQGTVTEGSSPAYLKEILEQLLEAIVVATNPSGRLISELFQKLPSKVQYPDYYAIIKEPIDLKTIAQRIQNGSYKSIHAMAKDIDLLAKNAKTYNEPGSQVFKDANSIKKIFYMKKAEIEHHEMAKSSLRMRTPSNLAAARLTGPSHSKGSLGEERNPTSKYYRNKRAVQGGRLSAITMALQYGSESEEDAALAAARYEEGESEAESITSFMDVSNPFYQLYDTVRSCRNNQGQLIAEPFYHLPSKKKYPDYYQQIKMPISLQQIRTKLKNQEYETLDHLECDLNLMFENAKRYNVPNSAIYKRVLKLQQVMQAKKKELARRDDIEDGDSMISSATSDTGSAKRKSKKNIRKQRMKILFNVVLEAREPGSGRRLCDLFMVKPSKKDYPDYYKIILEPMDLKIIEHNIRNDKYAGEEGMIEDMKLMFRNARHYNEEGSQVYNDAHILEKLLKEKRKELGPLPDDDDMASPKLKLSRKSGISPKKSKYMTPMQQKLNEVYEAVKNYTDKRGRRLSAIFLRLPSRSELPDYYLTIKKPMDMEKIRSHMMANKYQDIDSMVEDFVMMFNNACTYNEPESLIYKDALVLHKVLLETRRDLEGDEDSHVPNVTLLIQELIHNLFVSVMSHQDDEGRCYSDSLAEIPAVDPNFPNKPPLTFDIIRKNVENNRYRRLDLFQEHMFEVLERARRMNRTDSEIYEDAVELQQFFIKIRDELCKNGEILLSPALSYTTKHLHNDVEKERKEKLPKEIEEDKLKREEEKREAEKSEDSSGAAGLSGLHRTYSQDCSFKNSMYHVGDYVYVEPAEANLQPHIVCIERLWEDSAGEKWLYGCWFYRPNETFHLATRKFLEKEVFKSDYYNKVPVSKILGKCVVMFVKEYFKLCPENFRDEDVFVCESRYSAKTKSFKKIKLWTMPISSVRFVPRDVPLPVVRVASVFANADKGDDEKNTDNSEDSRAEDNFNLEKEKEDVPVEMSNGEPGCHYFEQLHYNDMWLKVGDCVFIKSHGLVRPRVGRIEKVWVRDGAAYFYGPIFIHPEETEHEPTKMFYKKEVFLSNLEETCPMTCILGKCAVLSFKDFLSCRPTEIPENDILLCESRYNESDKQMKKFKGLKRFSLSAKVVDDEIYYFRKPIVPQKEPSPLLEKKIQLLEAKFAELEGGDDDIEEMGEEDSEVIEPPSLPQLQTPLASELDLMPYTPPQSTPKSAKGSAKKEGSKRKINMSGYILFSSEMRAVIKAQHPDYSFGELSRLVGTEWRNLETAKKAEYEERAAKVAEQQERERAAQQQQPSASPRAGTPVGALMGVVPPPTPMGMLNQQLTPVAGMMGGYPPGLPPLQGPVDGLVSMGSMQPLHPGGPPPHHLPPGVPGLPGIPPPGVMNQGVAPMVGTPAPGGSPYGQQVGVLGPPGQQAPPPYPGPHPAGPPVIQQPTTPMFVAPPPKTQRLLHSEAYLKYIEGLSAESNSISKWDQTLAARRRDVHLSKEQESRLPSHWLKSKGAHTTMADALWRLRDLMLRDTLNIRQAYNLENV
UniProt Q92922, residues 2-1105: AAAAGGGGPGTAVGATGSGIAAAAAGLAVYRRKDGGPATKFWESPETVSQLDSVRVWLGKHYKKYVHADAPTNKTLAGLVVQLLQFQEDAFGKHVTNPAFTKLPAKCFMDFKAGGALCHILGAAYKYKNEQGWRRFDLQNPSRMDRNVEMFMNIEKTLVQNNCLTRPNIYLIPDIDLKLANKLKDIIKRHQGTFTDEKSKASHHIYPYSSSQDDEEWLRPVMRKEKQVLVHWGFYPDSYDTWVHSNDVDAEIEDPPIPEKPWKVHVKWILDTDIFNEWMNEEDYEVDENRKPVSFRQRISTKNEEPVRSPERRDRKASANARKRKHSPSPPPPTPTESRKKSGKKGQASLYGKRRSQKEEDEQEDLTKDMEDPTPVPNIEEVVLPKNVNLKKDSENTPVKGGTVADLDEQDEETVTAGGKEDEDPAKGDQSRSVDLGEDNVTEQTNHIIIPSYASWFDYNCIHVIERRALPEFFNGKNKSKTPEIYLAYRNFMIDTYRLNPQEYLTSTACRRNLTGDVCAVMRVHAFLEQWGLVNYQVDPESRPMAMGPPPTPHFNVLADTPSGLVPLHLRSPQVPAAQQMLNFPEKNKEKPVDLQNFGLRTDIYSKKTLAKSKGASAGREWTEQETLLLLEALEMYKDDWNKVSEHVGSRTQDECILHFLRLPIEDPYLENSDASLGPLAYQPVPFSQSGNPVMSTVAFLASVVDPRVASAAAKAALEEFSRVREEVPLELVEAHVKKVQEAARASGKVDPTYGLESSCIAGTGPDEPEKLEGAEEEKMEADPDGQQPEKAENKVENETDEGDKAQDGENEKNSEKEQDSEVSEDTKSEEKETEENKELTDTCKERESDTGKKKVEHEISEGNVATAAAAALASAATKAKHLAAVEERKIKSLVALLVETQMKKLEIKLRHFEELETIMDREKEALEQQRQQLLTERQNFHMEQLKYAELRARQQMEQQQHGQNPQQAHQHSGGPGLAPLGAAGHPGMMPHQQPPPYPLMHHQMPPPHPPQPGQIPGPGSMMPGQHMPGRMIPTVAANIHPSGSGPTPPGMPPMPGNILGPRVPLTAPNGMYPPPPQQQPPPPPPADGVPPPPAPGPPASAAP
UniProt O96019, residues 2-429: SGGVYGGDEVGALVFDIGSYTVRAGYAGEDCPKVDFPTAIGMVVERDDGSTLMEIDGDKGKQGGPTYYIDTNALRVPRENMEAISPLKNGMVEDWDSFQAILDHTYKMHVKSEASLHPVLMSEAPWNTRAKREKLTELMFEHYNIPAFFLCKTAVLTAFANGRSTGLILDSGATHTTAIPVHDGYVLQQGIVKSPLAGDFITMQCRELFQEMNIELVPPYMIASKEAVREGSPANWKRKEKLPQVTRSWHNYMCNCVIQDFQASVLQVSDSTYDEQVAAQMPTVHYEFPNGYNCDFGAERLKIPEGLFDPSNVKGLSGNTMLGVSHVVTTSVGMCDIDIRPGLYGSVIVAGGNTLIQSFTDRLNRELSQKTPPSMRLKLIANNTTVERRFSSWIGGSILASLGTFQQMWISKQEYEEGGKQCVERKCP
UniProt Q969G3: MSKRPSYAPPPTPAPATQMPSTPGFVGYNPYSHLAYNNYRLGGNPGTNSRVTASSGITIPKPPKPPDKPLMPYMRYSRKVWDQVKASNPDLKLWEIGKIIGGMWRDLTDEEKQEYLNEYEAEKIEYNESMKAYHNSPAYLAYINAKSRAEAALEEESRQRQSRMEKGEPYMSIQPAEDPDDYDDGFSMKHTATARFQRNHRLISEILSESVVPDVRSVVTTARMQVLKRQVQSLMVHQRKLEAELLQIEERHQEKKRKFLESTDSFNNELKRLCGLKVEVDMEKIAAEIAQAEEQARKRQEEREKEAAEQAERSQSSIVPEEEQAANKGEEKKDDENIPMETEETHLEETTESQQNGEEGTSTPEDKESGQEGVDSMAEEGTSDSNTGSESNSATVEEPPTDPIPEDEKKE
UniProt Q562R1: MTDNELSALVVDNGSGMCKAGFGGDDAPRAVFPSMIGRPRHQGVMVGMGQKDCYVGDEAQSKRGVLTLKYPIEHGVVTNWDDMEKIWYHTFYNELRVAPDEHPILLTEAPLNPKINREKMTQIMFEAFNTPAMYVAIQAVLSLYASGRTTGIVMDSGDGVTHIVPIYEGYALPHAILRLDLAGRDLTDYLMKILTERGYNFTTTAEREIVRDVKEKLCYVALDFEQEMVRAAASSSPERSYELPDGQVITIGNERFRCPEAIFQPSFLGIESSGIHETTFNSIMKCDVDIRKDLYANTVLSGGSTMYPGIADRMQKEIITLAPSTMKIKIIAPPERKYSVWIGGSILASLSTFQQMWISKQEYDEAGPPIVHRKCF

These are yes or no findings as the source states them, for the method shown. For some of these results: Binding seen in cells or lysates may run through a third protein. Some entries that bind do so weakly or less than the wild type. For some of these results: Tags and fused reporters may be left off the sequences shown.

Assay [1] deals with SMARCD2 (SWI/SNF related, matrix associated, actin dependent regulator of chromatin subfamily D member 2) (human) (UniProt Q92925). In words: inter-protein BS3 crosslink found by CX-MS in HA-BRD7-purified PBAF complexes, HEK-293T.
In assay [2] the target is SMARCA2 (human) (UniProt P51531). In words: inter-protein BS3 crosslink found by CX-MS in Flag-HA-SS18-purified complexes (HEK-293T).
Assay [3] concerns the target SMARCB1 (SWI/SNF related, matrix associated, actin dependent regulator of chromatin subfamily B member 1) (human) (UniProt Q12824). Described as above.
For assay [4], the target named is SMARCA4 (SWI/SNF related, matrix associated, actin dependent regulator of chromatin, subfamily a, member 4) (human) (UniProt P51532). In words: inter-protein BS3 crosslinks found by CX-MS in Flag-HA-SS18-purified complexes (HEK-293T).
The target of assay [5] is Osa (D. melanogaster ARID1 ortholog) (D. melanogaster) (UniProt Q8IN94). In words: inter-protein BS3 crosslink found by CX-MS in BAP60-HA complexes from S2 cells.
Assay [6] deals with Brm (D. melanogaster BAP/PBAP ATPase subunit, BRM_DROME) (D. melanogaster) (UniProt P25439). In words: inter-protein BS3 crosslinks found by CX-MS in BAP60-HA complexes from S2 cells.
Assay [7] has as its target SMARCD3 (human) (UniProt Q6STE5). In words: inter-protein BS3 crosslinks found by CX-MS in HA-PHF10-purified PBAF complexes (HEK-293T).
Assay [8] concerns the target SMARCC2 (human) (UniProt Q8TAQ2). In words: inter-protein BS3 cross-links found by CX-MS in HA-PHF10-purified PBAF complexes from HEK-293T cells.
The target of assay [9] is SMARCD3 (human) (UniProt Q6STE5). The assay is described as above.
Another assay deals with PBRM1 (human) (UniProt Q86U86). In words: inter-protein BS3 crosslinks (CX-MS), HA-BRD7-purified PBAF complexes from HEK-293T.
Assay [10] deals with SMARCA2 (human) (UniProt P51531). Described as above.
In assay [11] the target is SMARCC1 (human (HEK-293T cells)) (UniProt Q92922). In words: BS3 CX-MS inter-protein crosslink listed for the pair; HA-BRD7-purified PBAF complexes from HEK-293T.
The target of assay [12] is PBRM1 (protein Polybromo-1) (human) (UniProt Q86U86). In words: CX-MS self-crosslinks; co-IP/immunoblot with GFP- and V5-tagged PBRM1 variants.
Assay [13] deals with T1, PHF10 (PHD finger protein 10) (human) (UniProt Q8WUB8).
T1 sequence (looked up): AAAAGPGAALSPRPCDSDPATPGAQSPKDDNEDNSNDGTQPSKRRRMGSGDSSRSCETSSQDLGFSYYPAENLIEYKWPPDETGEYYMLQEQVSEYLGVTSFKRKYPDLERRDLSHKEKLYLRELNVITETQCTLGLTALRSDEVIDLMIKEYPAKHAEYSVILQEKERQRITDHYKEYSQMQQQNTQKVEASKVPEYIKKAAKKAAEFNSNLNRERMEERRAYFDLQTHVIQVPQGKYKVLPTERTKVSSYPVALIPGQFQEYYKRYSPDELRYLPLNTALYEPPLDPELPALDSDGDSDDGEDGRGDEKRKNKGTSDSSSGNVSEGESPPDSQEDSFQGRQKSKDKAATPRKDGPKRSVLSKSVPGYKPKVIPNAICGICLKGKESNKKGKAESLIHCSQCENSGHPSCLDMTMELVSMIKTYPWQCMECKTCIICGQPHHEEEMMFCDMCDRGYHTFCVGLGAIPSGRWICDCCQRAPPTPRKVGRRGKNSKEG
In words: inter-protein BS3 cross-links found by CX-MS in HA-BRD7-purified PBAF complexes (HEK-293T).

The target in assay [14] is SMARCA2 (BRM/BAF190) (human) (UniProt P51531). The description is as above.
In assay [15] the target is SMARCC1 (SWI/SNF related, matrix associated, actin dependent regulator of chromatin subfamily c member 1) (human) (UniProt Q92922). Described as above.
The target in assay [16] is SMARCC2 (SWI/SNF related, matrix associated, actin dependent regulator of chromatin subfamily c member 2) (human) (UniProt Q8TAQ2). Described as above.
Assay [17] concerns the target SMARCD3 (SWI/SNF related, matrix associated, actin dependent regulator of chromatin subfamily D member 3) (human) (UniProt Q6STE5). In words: inter-protein BS3 crosslink found by CX-MS in HA-BRD7-purified PBAF complexes, HEK-293T.
Assay [18] has as its target ACTL6A (Actin Like 6A) (human) (UniProt O96019). In words: inter-protein BS3 cross-link found by CX-MS in HA-BRD7-purified PBAF complexes (HEK-293T).
Assay [19] has as its target SMARCA2 (BRM/BAF190) (human) (UniProt P51531). In words: inter-protein BS3 crosslink, CX-MS of HA-PHF10-purified PBAF complexes from HEK-293T cells.
Assay [20] has as its target SMARCE1 (SWI/SNF related, matrix associated, actin dependent regulator of chromatin subfamily E member 1) (human) (UniProt Q969G3). In words: inter-protein BS3 crosslinks found by CX-MS in HA-DPF2-purified BAF complexes (HEK-293T).
The target of a further assay is T2, HA-PHF10 (human) (UniProt Q8WUB8).
T2 sequence (looked up): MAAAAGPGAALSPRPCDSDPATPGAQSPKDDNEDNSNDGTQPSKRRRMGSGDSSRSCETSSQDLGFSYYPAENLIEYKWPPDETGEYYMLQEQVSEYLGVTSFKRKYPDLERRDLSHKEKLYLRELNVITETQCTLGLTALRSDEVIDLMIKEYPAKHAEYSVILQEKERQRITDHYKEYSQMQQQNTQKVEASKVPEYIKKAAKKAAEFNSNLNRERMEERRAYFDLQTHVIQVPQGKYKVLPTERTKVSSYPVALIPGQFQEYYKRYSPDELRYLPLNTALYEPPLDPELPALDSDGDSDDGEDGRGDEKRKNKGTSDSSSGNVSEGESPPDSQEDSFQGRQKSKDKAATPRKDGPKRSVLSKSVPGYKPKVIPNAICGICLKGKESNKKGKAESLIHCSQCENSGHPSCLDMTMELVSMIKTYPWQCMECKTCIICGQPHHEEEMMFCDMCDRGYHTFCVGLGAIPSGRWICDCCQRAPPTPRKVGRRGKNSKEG
In words: inter-protein BS3 crosslinks found by CX-MS in HA-PHF10-purified PBAF complexes (HEK-293T).

The next assay deals with SMARCC1 (human) (UniProt Q92922). The assay is described as above.
Assay [21] addresses SMARCC2 (human) (UniProt Q8TAQ2). The description is as above.
In the next assay the target is SMARCD2 (human) (UniProt Q92925). Described as above.

Regarding “SMARCA4 (SWI/SNF related, matrix associated, actin dependent regulator of chromatin, subfamily a, member 4) (from UniProt P51532 1-1647) (enzyme)”, the binding entry in [1] is reported as “binds”. Regarding “BCL7C (BCL Tumor Suppressor 7C) (from UniProt Q8WUZ0 1-217)”, the binding result (with SMARCA2 (human) [2]; in [3]; in [4]) was “binds” throughout.

Regarding “BAP60-HA (D. melanogaster SMARCD1 ortholog with HA tag) (from UniProt Q9VYG2 1-515)”, the binding result in [5] and in [6] was “binds” each time. Consider SMARCC2 (from UniProt Q8TAQ2 1-1214), for which the binding result in the assay with SMARCD3 (human) [7] is “binds”. As for ARID2 (from UniProt Q68CP9 2-1835), the binding entry in the assay with SMARCC2 (human) [8] and with SMARCD3 (human) [9] was “binds” in each case.

Consider ACTL6A (from UniProt O96019 2-429), for which the binding entry in the assay with PBRM1 (human) and with SMARCA2 (human) [10] was “binds” each time. Take “SMARCA2 (from UniProt P51531 1-1590) (enzyme)”: the binding entry in assay [11] is “binds”. In the case of “PBRM1 (protein Polybromo-1) (from UniProt Q86U86 1-1689)”, the binding result in assay [12], in [13], in assay [14], in assay [15] and in [16] was “binds” throughout.

Turning to “SMARCC1 (SWI/SNF related, matrix associated, actin dependent regulator of chromatin subfamily c member 1) (from UniProt Q92922 2-1105)”, the binding result in [17] is reported as “binds”. As to ACTBL2 (from UniProt Q562R1 1-376), the binding entry in assay [18] is reported as “binds”. Take “ACTL6A (Actin Like 6A) (from UniProt O96019 2-429)”: the binding result in assay [19] is on record as “binds”. On to “SMARCD2 (SWI/SNF related, matrix associated, actin dependent regulator of chromatin subfamily D member 2) (from UniProt Q92925 1-531)”, for which the binding result in [20] is “binds”. Regarding PBRM1 (from UniProt Q86U86 1-1689), the binding result in the assay with HA-PHF10 (human), with SMARCC1 (human), with SMARCC2 (human) [21] and with SMARCD2 (human) was “binds” in each case.
